Results as given in PubChem BioAssay AID504327 (National Center for Advancing Translational Sciences (NCATS), 2011).
About 820 (0.21%) of roughly 390,000 compounds were called active. The inconclusive results got no clear call from the source; some entries with a clear call stand among them for comparison. The call rests on the fitted dose curve; in most records, active means well fitted inhibition curve with a large enough effect; inconclusive means small, poorly fitted or top-dose-only effect, or another doubt; inactive means no such curve, though single readings can be large or run the other way. A potency beside an inconclusive call is a rough fit, not a confirmed value.

Chains of the proteins cited; added tags and fusions are not shown.
UniProt Q92830, whole entry, looked up: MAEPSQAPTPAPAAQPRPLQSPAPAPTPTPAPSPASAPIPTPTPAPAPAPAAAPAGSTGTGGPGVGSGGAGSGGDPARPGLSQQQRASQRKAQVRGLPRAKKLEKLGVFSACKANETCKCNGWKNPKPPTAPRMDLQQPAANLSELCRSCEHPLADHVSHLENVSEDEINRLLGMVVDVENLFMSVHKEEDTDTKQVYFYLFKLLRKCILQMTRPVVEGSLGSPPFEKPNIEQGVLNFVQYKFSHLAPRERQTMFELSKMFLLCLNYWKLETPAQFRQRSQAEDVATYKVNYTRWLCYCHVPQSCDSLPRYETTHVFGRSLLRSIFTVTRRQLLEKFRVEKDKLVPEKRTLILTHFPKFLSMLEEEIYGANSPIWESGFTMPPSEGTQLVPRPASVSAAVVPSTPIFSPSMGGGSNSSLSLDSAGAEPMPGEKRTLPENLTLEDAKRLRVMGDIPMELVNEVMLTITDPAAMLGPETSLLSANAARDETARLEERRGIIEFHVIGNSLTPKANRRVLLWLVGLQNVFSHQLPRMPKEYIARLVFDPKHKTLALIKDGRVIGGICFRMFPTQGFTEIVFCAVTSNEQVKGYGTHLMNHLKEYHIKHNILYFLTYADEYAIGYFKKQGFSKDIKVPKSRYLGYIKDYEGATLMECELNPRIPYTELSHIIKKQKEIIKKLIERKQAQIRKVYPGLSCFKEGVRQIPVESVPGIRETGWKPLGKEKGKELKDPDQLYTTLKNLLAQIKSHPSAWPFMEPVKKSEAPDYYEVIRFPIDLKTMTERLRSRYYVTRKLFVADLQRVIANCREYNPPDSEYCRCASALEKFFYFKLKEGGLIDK

Target: Histone acetyltransferase KAT2A (Homo sapiens) (UniProt Q92830)
Test: qHTS Assay for Inhibitors of GCN5L2
Details: GCN5L2 HAT assay, ThioGlo1 CoA-SH fluorescence; series mostly up to 58.9 µM
From the text: Histone acetyltransferase (HAT) enzymes transfer a […] group from acetyl-coenzyme A to the epsilon-amino group of conserved lysine residues of N-terminal histone tails. Acetylation results in charge neutralization of this positively charged amino acid, decreasing interactions with the […] backbone and making the DNA more accessible for transcription. HATs have been recognized as an emerging drug target for treatment of cancer, diabetes, asthma, chronic obstructive pulmonary disease, cardiac disease, and viral infection. Protein identified with HAT activity include the […] like 2 (GCN5L2, a.ka. Histone acetyltransferase KAT2A) which acetylates histone H3 at Lys9, 14, 18, 13, and to lesser extent histones H4 and H2B. This activates transcription of the gene by modulating chromatin structure and installing the acetyllysine recognition mark for bromodomain-containing coactivator proteins.
A quantitative high throughput screen was developed to identify small molecule inhibitors. The assay is based on the principle that it measures formation of reduced CoA with the pro-fluorescent maleimide derivative ThioGlo1 that becomes fluorescent upon reaction with the free thiol of CoA.
A large number of artifacts are expected in this primary screen, compounded by the assay format (fluorescent artifacts) and by the high top concentration tested for each substance. This BioAssay data deposition should be used with caution, and counterscreen and secondary assay validation is essential since very few actives from the primary screen are expected to be true inhibitors of GCN5L2.
[2] Yasgar, et al. Compound Management for Quantitative High-Throughput Screening. JALA. 2008 Apr;13(2):79-89.
[3] Inglese, et al. Quantitative high-throughput screening: a titration-based approach that efficiently identifies biological activities in large chemical libraries. Proc Natl Acad Sci. 1;103(31):11473-8. 2006. PMID: 16864780
NIH Molecular Libraries Probe Production Network [MLPCN]
NIH Chemical Genomics Center [NCGC]
Structural Genomics Consortium (SGC)
To each well of a 1,536w plate, 3ul of GCN5L2 (final concentration 20nM, in 50mM HEPES, 0.1mM EDTA (pH 7.5), 0.01% Tween-20 buffer) are added using a Kalypsys dispenser. Only buffer is added to some wells as a control. A Kalypsys pin-tool transferred 23nl of library compound solution in DMSO to each well, as well as the control inhibit garcinol. . Following a 15 min incubation of enzyme with compounds at room temperature, 1ul mixture of ThioGlo1 (50uM final), H3(1-25) peptide (75uM final), and Acetyl-CoA (70uM final) is added. Plates are read immediately on the ViewLux (PerkinElmer) (Ex340nm/Em540nm) for a 0 min read, incubated for 20 min at room temperature, and read again on the ViewLux with the same settings. The initial read was carried out to identify compounds that are potentially fluorescent.
Potency means the concentration at half of the fitted maximal effect.

Row | SMILES | Potency
1 | COc1ccc2c(c1OC)C(=O)O[C@H]2[C@H]1c2cc3c(cc2CCN1C)OCO3 | inconclusive: 15.8 µM [inhibitor, single point]
2 | CC(Nc1cc(C)cc(C)c1)=[N+](C)CCNS(=O)(=O)c1ccc(Cl)cc1 | inconclusive: 39.8 µM [inhibitor, single point]
3 | O=C(c1cc2cc3ccc(Cl)cc3nc2o1)N1CCC2(CC1)OCCO2 | inconclusive: 4.47 µM [inhibitor, partial curve, poor fit]
4 | CCOC(=O)c1ccc(NC(=O)N2CC3CC(C2)c2cccc(=O)n2C3)cc1 (centres undefined) | inactive
5 | Cc1cc(/C=C2\C(=O)NC(=O)N(Cc3ccco3)C2=O)c(C)n1-c1ccc(C(=O)O)cc1 | inactive
6 | Cc1cc(C(C#N)c2ccc(Cl)cc2)c(Cl)cc1NC(=O)c1cc(I)cc(I)c1O (centres undefined) | active: 10 µM
7 | CC(C)[C@@H]1CN[C@H](C(=O)O)[C@@H]1CC(=O)O | inactive
8 | CCn1nc(-c2ccccc2)nc2c(=O)n(C)c(=O)nc1-2 | inconclusive: 39.8 µM [inhibitor, single point]
9 | CCCCN1C(=O)/C(=C/C=C/c2ccco2)C(=O)NC1=S | inactive
10 | CN1C(=O)COc2c(C(=O)N[C@@H]3CN4CCC3CC4)cc(Cl)cc21 | inactive
11 | Brc1ccc(-c2ccccc2)cc1 | inconclusive: 31.6 µM [inhibitor, single point]
12 | C[C@]12O[C@H](C[C@]1(O)CO)n1c3ccccc3c3c4c(c5c6ccccc6n2c5c31)CNC4=O | inconclusive: 39.8 µM [inhibitor, single point]
13 | O=C(CNS(=O)(=O)c1cccs1)N1CCC2(CC1)OCCO2 | inconclusive: 39.8 µM [inhibitor, single point]
14 | Cc1cccc2c(CCN)c[nH]c12 | inactive
15 | CN(CCc1ccccc1)Cc1c[nH]c2ccccc12 | inconclusive: 7.08 µM [inhibitor, single point]
16 | O=C(C1CC(=O)N(c2ccc(F)c(Cl)c2)C1)N1CCC2(CC1)OCCO2 (centres undefined) | inconclusive: 39.8 µM [inhibitor, single point]
17 | COc1ccccc1OCC(=O)N1CCCC(N2CCN(c3ccc(F)cc3)CC2)C1 (centres undefined) | inactive
18 | CC(=O)O[C@@]12CO[C@@H]1C[C@@H](O)[C@@]1(C)C(=O)[C@H](O)C3=C(C)[C@@H](OC(=O)[C@H](O)[C@@H](NC(=O)c4ccccc4)c4ccccc4)C[C@@](O)([C@@H](OC(=O)c4ccccc4)C12)C3(C)C (some centres undefined) | inconclusive: 0.794 µM [inhibitor, single point]
19 | COc1cc2c(cc1OC)CC[N+](C)=C2 | inconclusive: 35.5 µM [inhibitor, single point]

Reformatted as tab-separated lines: part of the list above.
Row	SMILES	Potency
9	CCCCN1C(=O)/C(=C/C=C/c2ccco2)C(=O)NC1=S	inactive
10	CN1C(=O)COc2c(C(=O)N[C@@H]3CN4CCC3CC4)cc(Cl)cc21	inactive
